Data source: PubChem BioAssay AID1159584 (Peter MacCallum Cancer Centre, 2016)

Aim: 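Knock-downs that harm CDH1-null cells more than parental MCF10A cells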 (primary screen)
System: human MCF10A breast epithelial cells, parental and CDH1-null
Knock-down reagent: siRNA against human genes
Measurement: 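Cell viability by CellTiter-Glo ATP luminescence, each line scaled to the mean of mock wells across plates, then CDH1-null over parental ratio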
Direction: CDH1-null / parental viability ratio: higher = CDH1-null cells survive relatively better than parental
The deposit covers about 18,000 reagents; this is a random part of them. Further read-outs or replicates are left out here. Not stated in the record: the amount of reagent, the time to read-out.

The first 2 entries, to show the layout:
gene knocked down	CDH1-null / parental viability ratio
TMEM202	1
P4HA3	1.31

Results, from the start:
gene knocked down	CDH1-null / parental viability ratio
TMEM202	1
P4HA3	1.31
ROS1	0.62
ZBTB12	1.09
ERG	0.87
CCDC150	0.9
CCL15	0.76
ABHD3	0.91
MC2R	0.75
POLE4	0.72
SYNM	1.32
ZFP36L1	1.21
KIAA0930	1.17
SAXO6	1.11
B3GLCT	1.24
OR2B6	1.19
ATCAY	0.84
ZBTB40	0.94
NARS1	0.95
C9orf85	0.83
TMEM156	1.24
VHLL	0.96
OSR2	0.81
LAMP3	0.65
PLAGL1	0.92
CHST11	0.87
CKB	0.97
MYLK2	1.09
TMEM176A	1.32
NAA30	0.77
CCPG1	1.2
KREMEN2	0.92
PIK3R6	1.29
GJA5	1.11
ALDOC	1.09
DST	1.24
AP1G2	1.19
ADH4	0.89
YPEL3	0.92
WDR75	0.96
SYTL1	0.78
FAM120AOS	0.83
CIDEB	0.82
PNMT	0.75
LRRFIP2	0.82
ADNP2	1.5
OR2T4	0.85
SYT15	1.29
SLC9A3	1.29
MTHFS	0.99
DSCAM	1.36
LMO3	0.88
GTF2E2	1.15
COL5A1	1.14
TIGIT	0.99
OR4P4	1.33
SNX32	0.88
OR4K1	1.09
SLC37A4	1
THAP5	1.22
ANKS3	0.88
OR2C3	0.87
CDKN3	1.38
VPS37D	1.25
CEP95	0.9
HEPACAM2	0.98
DBI	0.86
GTF3C4	0.95
